Experimental data: PubChem BioAssay AID2549 (National Center for Advancing Translational Sciences (NCATS), 2010)
Values joined by “and” are separate entries in the source; they are usually repeats but may differ in a detail not shown here. Equal values may be shown once. The whole screen tested about 240,000 compounds, of which about 1,300 (0.54%) were called active. This list was built around the results that the source calls inconclusive (neither active nor inactive); the mix of calls is not that of the screen. Calls follow the shape of the dose curve; as a rule, active = well fitted inhibition curve with a large enough effect; inconclusive = small, poorly fitted or top-dose-only effect; inactive = flat fitted curve, though single readings scatter. Potencies beside an inconclusive call are fits to weak or partial responses and may not hold up.

Chains of the proteins cited; added tags and fusions are not shown. Lines headed by an entry give the natural chain unless they say otherwise; changes in a name come on top.
UniProt P46063: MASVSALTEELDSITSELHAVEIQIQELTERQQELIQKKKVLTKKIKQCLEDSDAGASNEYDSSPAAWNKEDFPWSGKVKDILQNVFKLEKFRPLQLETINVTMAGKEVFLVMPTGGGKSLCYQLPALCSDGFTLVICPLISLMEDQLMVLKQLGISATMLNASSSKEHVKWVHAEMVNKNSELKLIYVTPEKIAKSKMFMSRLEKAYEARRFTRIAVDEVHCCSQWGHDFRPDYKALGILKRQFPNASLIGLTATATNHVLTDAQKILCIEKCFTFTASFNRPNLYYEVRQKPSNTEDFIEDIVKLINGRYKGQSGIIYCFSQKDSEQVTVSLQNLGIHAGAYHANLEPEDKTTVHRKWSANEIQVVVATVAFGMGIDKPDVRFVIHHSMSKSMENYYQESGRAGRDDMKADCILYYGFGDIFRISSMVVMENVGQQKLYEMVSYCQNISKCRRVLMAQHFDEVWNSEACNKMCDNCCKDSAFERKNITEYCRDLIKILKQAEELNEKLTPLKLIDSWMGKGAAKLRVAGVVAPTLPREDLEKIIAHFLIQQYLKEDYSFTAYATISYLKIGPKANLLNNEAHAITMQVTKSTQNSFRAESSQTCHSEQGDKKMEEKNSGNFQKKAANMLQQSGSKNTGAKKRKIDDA

biological target: ATP-dependent DNA helicase Q1 (Homo sapiens) (UniProt P46063); test: qHTS Assay for Inhibitors of RecQ-Like Dna Helicase 1 (RECQ1); settings: RECQ1 DNA unwinding, red fluorescence kinetic read; activity, negative = inhibition: at 57.3 µM (top of the series); series mostly up to 57.3 µM; also: nearly all actives have a fitted effect of over 30% in size;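 as to activity, negative = inhibition: plate controls were vehicle for no effect and no enzyme for full effect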
Text: Survival of cells and the faithful propagation of the genome depend on elaborate mechanisms of detecting and repairing DNA damage. Treatment of advanced cancer relies on radiation therapy or chemotherapy, which kill cancer cells by causing extensive DNA damage. It is often found, that cancer cells develop resistance to therapy through enhanced activity of DNA repair functions; this has led to an increased interest in developing drugs that interfere with DNA repair, which could sensitize cancer cells to conventional therapy.
This validation qHTS assay pertains to human RECQ1, which is important in resolving abnormal DNA structures formed during replication or homologous recombination. Shutting down the expression of RECQ1 leads to chromosomal instability and higher radiation sensitivity in cultured cells.
The validation assay was a fluorescence quenching based kinetic qHTS for RECQ1 Helicase DNA unwinding. The activity was measured as ATP-dependent separation of a 20-bp DNA duplex extended by 30-nt single-stranded tails (forked duplex). The forked DNA substrate was tagged with rhodamine fluorophore (carboxytetramethyl rhodamine, TAMRA) and BHQ-2 (Black Hole Quencher 2) dark quencher. Strand separation results in an increase in the fluorescence of TAMRA (excitation 525 nm, emission 598 nm). This substrate construct operates in a red-shifted region where very few compound library members have been noted to fluoresce (PubChem AIDs 593 and 594). An additional feature of the assay is the inclusion of 2.5 ug/ml poly (dIdC), to reduce interference by compounds such as DNA intercalators, a major source of false inhibitors.
Opher Gileadi, Structural Genomics Consortium, University of Oxford
Screening Center PI: Austin, C.P.
Screening Center: NIH Chemical Genomics Center [NCGC]
Three uL of reaction buffer (25 mM Tris-HCl (pH 8.0), 5 mM NaCl, 2 mM MgCl2, 1mM DTT, 0.01% Tween- 20, and 2.5 ug/ml poly(dI-dC), including enzyme (50 nM RECQ1T1), were dispensed into a 1536-well Greiner black assay plate via solenoid-valve based nanoliter dispensers. Compounds (23 nl each in columns 5-48) and control (23 nl each in column 2 as dose-response) were transferred via a Kalypsys pintool equipped with a 1536-pin array. The plates were incubated for 15 min at room temperature, and then 1 ul of substrates (200 nM DNA and 2 mM ATP, final concentrations) was added to start the reaction. The plate was transferred into a ViewLux high-throughput CCD imager where the reaction progress was measured in a discontinuous kinetic mode (two reads spaced 2 hours apart, with intermediate room temperature incubation of the covered assay plate) by using standard red-fluorescence optics (excitation filter 525 nm, emission filter 598 nm). Enzyme-free and vehicle (DMSO) controls were included for signal normalization.
Potency is read from the fitted curve at half-maximal effect.

Structure (SMILES)	Potency	activity, negative = inhibition
Cc1nn(C)c(C)c1N1C(=O)c2cccc3c(N)ccc(c23)C1=O	inconclusive: 31.6 µM [inhibitor, single point]	–
CC(C)c1ccc(NC(=S)NNc2ccc(Cl)c(C(=O)O)c2)cc1	inconclusive: 31.6 µM [inhibitor, single point]	–
COC(=O)[C@@H]1C[C@@]2(O)[C@@H](O)[C@@H](O)[C@@H](O)C[C@H]2N1Cc1cc(OC)cc(OC)c1	inconclusive: 0.0891 µM [inhibitor, full curve, poor fit]	–
Cc1ccc2c(c1C)NC(C(=O)O)C1CC=CC21 (stereo not drawn)	active: 3.55 µM and active: 5.01 µM	–
O=C(/C=C/c1ccc(F)cc1)NCc1cccs1	inconclusive: 6.31 µM [inhibitor, full curve]	–
CCOC(=O)/C(=N/Nc1ccccc1)c1csc(Nc2ccccc2)n1	inconclusive: 39.8 µM [inhibitor, single point]	–
CCOc1ccc2[nH]c3c(N4CCN(c5ccccn5)CC4)ncnc3c2c1	inconclusive: 3.16 µM [inhibitor, full curve]	–
Cc1ccc(COc2coc(CO)cc2=O)cc1	inconclusive: 1.12 µM [inhibitor, full curve]	–
C/C(=N\NC(=O)c1ccc(Cl)cc1)c1cccc(NC(=O)C(C)C)c1	inconclusive: 12.6 µM [inhibitor, partial curve]	–
CCC(/C=C1\Sc2ccc(OC)cc2N1CCO)=C\c1sc2ccc(OC)cc2[n+]1CCO	active: 12.6 µM	–
CC1CCN(S(=O)(=O)c2ccc(NC(=O)N3c4ccccc4Sc4ccccc43)cc2)CC1	inactive	–
Cc1cc(C(=O)COC(=O)CNC(=O)c2ccco2)c(C)n1Cc1ccco1	inconclusive: 39.8 µM [inhibitor, single point]	–
O=C1OC2(c3cc(I)c(O)c(I)c3Oc3c2cc(I)c(O)c3I)c2c(Cl)c(Cl)c(Cl)c(Cl)c21	active: 10 µM	–
O=[N+]([O-])c1cc(/C=N\Nc2nc(-c3ccccc3)cs2)ccc1O	inconclusive: 39.8 µM [inhibitor, single point]	–
CC1=NC(Nc2nc(C)c3ccccc3n2)=NC(C)(C)C1	inactive	–
CS(=O)(=O)c1ccc2c(c1)SC1=NC(=O)/C(=C/c3ccco3)C(=N)N12	active: 28.2 µM	–
COCCN1C(=O)N[C@@H](c2cccc(F)c2)C(C(C)=O)=C1C	inconclusive: 1.58 µM [inhibitor, single point]	–
O=C(NC(=S)NNC(=O)c1ccccc1[N+](=O)[O-])c1ccccc1	inactive	–
COc1ccc(S(=O)(=O)NCc2ccc3c(c2)cc(C)n3C)cc1	active: 31.6 µM	–
C=CCSC1=N/C(=C\c2ccc3c(c2)OCO3)C(=O)S1	inactive	–
CN(CC(=O)NCCc1ccccc1)S(=O)(=O)c1cnc[nH]1	inconclusive: 0.794 µM [inhibitor, single point]	–
CCCNC(=O)c1ccc2c(=O)c(O)c(-c3ccc(C)cc3)[nH]c2c1	inactive	–
CCCc1nc2sc3c(SCC(=O)NCc4ccco4)ncnc3c2c2c1CCC2	inconclusive: 35.5 µM [inhibitor, single point]	–

Structure (SMILES)	Potency	activity, negative = inhibition
CC(/C=N/n1c(-c2cc(C)[nH]n2)n[nH]c1=S)=C\c1ccco1	active: 25.1 µM	–
N#C/C(=C\c1ccc(O)c(O)c1)C(=O)OCCc1cccs1	active: 28.2 µM	–
N#C/C(=C/c1ccc(-c2cc(C(=O)O)cc(C(=O)O)c2)o1)c1nc2ccccc2s1	inconclusive: 22.4 µM [inhibitor, single point]	–
O=C(/C=C/c1ccco1)NCC1OCCc2ccccc21 (stereo not drawn)	inconclusive: 22.4 µM [inhibitor, single point]	–
COc1cccc(OCCCOc2ccccc2C(C)C)c1	inconclusive: 6.31 µM [inhibitor, single point]	–
c1ccc2c(c1)ccc1nnc(-c3ccc4c(c3)OCO4)n12	inconclusive: 39.8 µM [inhibitor, single point]	–
O=C(Cc1cccc2ccccc12)N/N=C/c1ccc(F)cc1	inactive	–
CC(C)Oc1ccc(C(=O)NC2(C(F)(F)F)NC(=O)N(CCCc3ccccc3)C2=O)cc1 (stereo not drawn)	inconclusive: 7.08 µM [inhibitor, partial curve]	–
C/C=C/C=C\C(=O)Nc1cccc(C2=NOC3(C2)C[C@@H](C(N)=O)N(C(=O)c2cc([N+](=O)[O-])cc([N+](=O)[O-])c2)C3)c1 (stereo partly drawn)	inconclusive: 6.31 µM [inhibitor, single point]	–
NC1=Nc2cccc3cccc1c23	inconclusive: 39.8 µM [inhibitor, single point]	–
COc1cccc(CN2CCN(C(=O)c3ccc(-c4ccccc4)cc3)CC2)c1	active: 25.1 µM	–
OCCNCc1cccc(OCc2ccc(Cl)cc2)c1	inactive	–
COc1cc(NCc2ccc3nc(N)nc(N)c3c2C)cc(OC)c1OC	inactive	–
Cc1ccc(-n2c(Cc3cccn3C)nnc2SCC(=O)NCc2ccc3c(c2)OCO3)cc1	inconclusive: 39.8 µM [inhibitor, single point]	–
CO[C@@H]1COC(=O)[C@@H](CCSC)NC(=O)C/C=C\[C@@H](C)COC(=O)[C@H](C)NC(=O)C/C=C\[C@H]1C	–	inactive: 0.427% [at 11.5 µM]
CCOC(=O)c1ccc(N2C(=O)C3ON(c4ccccc4)C(c4ccco4)C3C2=O)cc1 (stereo not drawn)	inconclusive: 25.1 µM [inhibitor, partial curve]	–
COc1ccccc1CNc1nc(-c2ccc3c(c2)OCO3)nc2ccccc12	inconclusive: 22.4 µM [inhibitor, single point]	–
CCO[C@@H]1OC(C(=O)Nc2ccccc2)=C[C@H](c2csc3ccccc23)[C@H]1CCCO	inconclusive: 7.94 µM [inhibitor, full curve]	–
COc1ccc(NC(=O)/C(Cl)=C(/Cl)S(=O)Cc2ccc(Cl)cc2)cn1 (stereo not drawn)	active: 35.5 µM	–
Cc1ccc(C)c(N(C(=O)c2nsc(Cl)c2Cl)C(C(=O)NC2CCCC2)c2ccc(O)cc2)c1 (stereo not drawn)	inconclusive: 6.31 µM [inhibitor, full curve]	–
COc1ccccc1N1C(=N)S/C(=C\c2ccc(-c3ccccc3C(=O)O)o2)C1=O	inconclusive: 25.1 µM [inhibitor, single point]	–
O=C(NCc1ccc(F)cc1)c1c2c(nc3ccccc13)CCC2	inconclusive: 39.8 µM [inhibitor, single point]	–
Cc1ccc(-c2cc(C(=O)O)c3cc(Br)ccc3n2)o1	inconclusive: 35.5 µM [inhibitor, single point]	–

In another format: entries from further up.

| Structure (SMILES) | Potency | activity, negative = inhibition |
| --- | --- | --- |
| COc1cccc(OCCCOc2ccccc2C(C)C)c1 | inconclusive: 6.31 µM [inhibitor, single point] | – |
| COc1cc(NCc2ccc3nc(N)nc(N)c3c2C)cc(OC)c1OC | inactive | – |

(continued)

Structure (SMILES)	Potency	activity, negative = inhibition
Cn1nnc(NC(=O)c2ccc(C(C)(C)C)cc2)n1	active: 20 µM	–
Cc1cccc(NC(=O)CN2C(=O)S/C(=C\c3cc(C)n(C)c3C)C2=O)c1	inactive	–
COc1cc(NC2=CC(=O)CC(C)(C)C2)cc(OC)c1	inconclusive: 3.16 µM [inhibitor, single point]	–
CCCCNC(=O)c1onc(CSc2cccc3ccccc23)c1C(=O)O	inactive	–
COc1cc(/C=C/C(=O)Nc2nc3ccc(S(=O)(=O)N(C)C)cc3s2)cc(OC)c1OC	active: 6.31 µM	–
COc1cc([C@H]2c3cc4c(cc3[C@@H](O[C@H]3O[C@H]5CO[C@@H](C)O[C@H]5[C@@H](O)[C@@H]3O)[C@@H]3COC(=O)[C@H]23)OCO4)cc(OC)c1O	inactive	–
Cc1ccc(N2C(=O)[C@@H]3C(C(=O)C(c4ccccc4)c4ccccc4)=NN[C@@H]3C2=O)cc1	inconclusive: 35.5 µM [inhibitor, partial curve]	–
O=C1N/C(=N/NC(=O)c2cccc3ccccc23)S/C1=C\c1ccccc1OCc1ccccc1	inconclusive: 22.4 µM [inhibitor, partial curve, poor fit]	–
O=C(O)COc1ccc(/C=N/NC(=O)c2ccc(-c3csc(Nc4ccc(Cl)cc4)n3)cc2)cc1	active: 11.2 µM	–
COc1cc(/C=N\NC(=O)CNC(=O)C(c2ccccc2)c2ccccc2)ccc1O	inactive	–
Cc1ccc(C)c(N2CCN(C(=O)c3csc4ccccc34)CC2)c1	inconclusive: 35.5 µM [inhibitor, single point]	–
COc1ccccc1-c1cc(C(F)(F)F)nc(S(=O)(=O)CCCC(=O)NC(C)C)n1	inconclusive: 6.31 µM [inhibitor, single point]	–
CCC1=NN2C(=N)/C(=C\c3ccc(SCc4ccco4)o3)C(=O)N=C2S1	active: 22.4 µM	–
Cn1c(CN2CCOCC2)nc2cc(NC(=O)c3ccc(F)cc3)ccc21	inconclusive: 0.126 µM [inhibitor, full curve, poor fit]	–
O=C(c1cc2nc(-c3ccco3)cc(C(F)(F)F)n2n1)N1CCCCCC1	inconclusive: 28.2 µM [inhibitor, single point]	–
CC(C)(C)c1ccc(S(=O)(=O)/C=C\C#N)cc1	inactive	–
CS(=O)(=O)c1ccc2nc(NC(=O)Nc3ccc(Cl)cc3)sc2c1	inconclusive: 1.26 µM [inhibitor, full curve, poor fit]	–
C=CCOc1ccccc1/C=c1\sc2nc(=O)c(C)nn2c1=O	inconclusive: 28.2 µM [inhibitor, single point]	–
COc1ccc(C(=O)Nc2nc(C)cc(C)n2)cc1	inconclusive: 35.5 µM [inhibitor, single point]	–
O=C(N/N=C/c1ccc(N2CCCCC2)o1)C(O)(c1ccccc1)c1ccccc1	inconclusive: 35.5 µM [inhibitor, single point]	–
O=C(Cc1ccc(Cl)cc1)N/N=C/c1ccccc1	inactive	–
CCCc1cc(=O)[nH]c(SCC(=O)N2N=C(c3ccc(Cl)cc3)CC2c2ccco2)n1 (stereo not drawn)	inactive	–

Nothing new here: 3 of the compounds above.
Structure (SMILES)	Potency	activity, negative = inhibition
O=C(NCc1ccc(F)cc1)c1c2c(nc3ccccc13)CCC2	inconclusive: 39.8 µM [inhibitor, single point]	–
Cc1ccc(-c2cc(C(=O)O)c3cc(Br)ccc3n2)o1	inconclusive: 35.5 µM [inhibitor, single point]	–
Cn1nnc(NC(=O)c2ccc(C(C)(C)C)cc2)n1	active: 20 µM	–
